Experimental data as given in PubChem BioAssay AID504834 (National Center for Advancing Translational Sciences (NCATS), 2011).
Among all 320,000 compounds or so, about 22,000 (6.9%) were called active. The shares of active, inactive and inconclusive entries below differ from those in the screen. Calls come from the whole dose curve; as a rule, active = well fitted inhibition curve with a large enough effect; inconclusive = small, poorly fitted or top-dose-only effect, or another doubt; inactive = no such curve, though single readings can be large or run the other way. Where the call is inconclusive, the potency comes from a doubtful curve fit.

Experiment: Primary qHTS for delayed death inhibitors of the malarial parasite plastid, 96 hour incubation
Details: P. falciparum luciferase reporter growth; series mostly up to 28.7 µM
Summary of the method: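 Two parasite generations (96 h, 37 C, 5% CO2) of compound exposure in infected erythrocytes (0.05% parasitemia, 2% hematocrit). Luciferase-reporter P. falciparum; decreased luminescence indicates inhibited growth, aimed at apicoplast-acting delayed death.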
Potency is the fitted concentration of half-maximal effect.

Compound | Potency
CC(=O)NNC(=O)CCn1nnc2ccccc21 | inconclusive: 18.5 µM [inhibitor, single point]
Cc1cccc(NC(=O)/C(C#N)=C\c2ccc(C(=O)O)cc2)c1 | inconclusive: 16.5 µM [inhibitor, single point]
O=C(CCCCCn1c(=S)[nH]c2ccc(N3CCOCC3)cc2c1=O)NCc1ccccc1 | inconclusive: 18.5 µM [inhibitor, single point]
CCN(CC)C(=O)C1c2ccccc2Oc2ccccc21 | active: 5.22 µM
NC(=O)CSc1nc(C2CC2)nc2sc3c(c12)CCCC3 | inconclusive: 18.5 µM [inhibitor, single point]
CCC(C(=O)OCC(=O)Nc1ccc(C)c(S(=O)(=O)N2CCOCC2)c1)c1ccccc1 (stereo unspecified) | inconclusive: 0.0828 µM [inhibitor, full curve, poor fit]
Cc1ccc(NC(=O)COC(=O)c2cccc3c2C(=O)c2ccccc2C3=O)c(C)c1 | inconclusive: 11.7 µM [inhibitor, single point]
CCc1cc(C(=O)N(C)CC(=O)N(CC(C)C)c2c(N)n(CC(C)C)c(=O)[nH]c2=O)sc1C | inconclusive: 9.28 µM [inhibitor, single point]
CN(CC(=O)Nc1ccc2c(c1)OCCO2)Cc1nc2ccccc2c(=O)[nH]1 | inactive
COc1ccc(CN2CCNC(=O)C2CC(=O)NCCc2c[nH]c3ccccc23)c(OC)c1 (stereo unspecified) | inconclusive: 18.5 µM [inhibitor, single point]
CCOC(=O)C1CNc2cc(S(=O)(=O)CC)ccc2O1 (stereo unspecified) | inconclusive: 7.38 µM [inhibitor, partial curve, poor fit]
Cc1ccc(CSc2nnc(SCC(=O)N/N=C/c3ccccc3OCC(=O)O)s2)cc1 | inactive
CCc1nc(C)cn1S(=O)(=O)c1cc(C)c(OC)cc1C | inconclusive: 11.7 µM [inhibitor, single point]
O=C(Nc1cc(S(=O)(=O)N2CCCCCC2)ccc1OCC(F)(F)F)c1ccc(=O)[nH]c1 | inconclusive: 3.7 µM [inhibitor, partial curve, poor fit]
COc1ccc(OC)c(N(C(=O)c2ccco2)C(C(=O)NC2CCCC2)c2ccc(N3CCOCC3)cc2)c1 (stereo unspecified) | inactive
COc1cc(NS(=O)(=O)c2ccc(F)cc2)c(OC)cc1NC(=O)C1CC1 | inconclusive: 6.57 µM [inhibitor, partial curve]
Cc1cc([N+](=O)[O-])nn1CC(=O)NCc1nc2ccccc2[nH]1 | inconclusive: 9.28 µM [inhibitor, partial curve, poor fit]
CCn1c(CCCCc2n[nH]c(=S)n2CC)n[nH]c1=S | inactive
O=C(CCCC1=NS(=O)(=O)c2ccccc2N1)N1CCN(c2ccc([N+](=O)[O-])cc2)CC1 | inconclusive: 20.8 µM [inhibitor, single point]
Cc1ccc(NC(=O)CNc2cccc(C)c2C)c(C)c1 | inconclusive: 18.5 µM [inhibitor, single point]
O=C(Oc1ccc(Br)cc1C(=S)N1CCCC1)c1ccccc1F | inactive

Compound | Potency
COC(=O)[C@@]1(Cc2ccc(F)cc2)[C@H]2c3cc(C(=O)N(C)C)n(Cc4ccc(OC)c(OC)c4)c3C[C@H]2CN1C(=O)c1ccccc1 | active: 5.22 µM
Cc1cccc(OCCCC(=O)NC(C)c2ccccc2)c1 (stereo unspecified) | inconclusive: 10.4 µM [inhibitor, single point]
Cc1ccc(NC(=O)CN2CCc3cc4c(cc3C2C)OCCCO4)cc1C (stereo unspecified) | inconclusive: 18.5 µM [inhibitor, single point]
Cc1ccc(S(=O)(=O)N2CCN(Cc3cc(=O)n4ccccc4n3)CC2)cc1C | inconclusive: 1.85 µM [inhibitor, single point]
CCOC(=O)c1oc2ccccc2c1COC(=O)CNC(=O)c1cc(OC)c(OC)c(OC)c1 | inactive
COc1ccc([C@H]2CC(=O)C=C(c3cc(OC)ccc3OC)C2)cc1 | inconclusive: 18.5 µM [inhibitor, single point]
CCOc1ccc(OCC)c(NC(=O)C2CCN(S(=O)(=O)c3c(C)[nH]c(=O)[nH]c3=O)CC2)c1 | inconclusive: 18.5 µM [inhibitor, single point]
COc1ccccc1-c1cn[nH]c1-c1ccc(OCc2ccc([N+](=O)[O-])cc2)cc1O | inactive
C(CCc1nn[nH]n1)CCc1nn[nH]n1 | inconclusive: 0.0029 µM [inhibitor, full curve, poor fit]
CCN1CCc2c(OCC(=O)N3CCC(C)CC3)cccc2C1=O | inconclusive: 7.38 µM [inhibitor, partial curve, poor fit]
Cc1noc(C)c1COC(=O)c1csc2c1CCC(C)C2 (stereo unspecified) | inconclusive: 9.28 µM [inhibitor, single point]
COc1cc(C(=O)Sc2ccc(C)cc2)cc(OC)c1OC | inconclusive: 18.5 µM [inhibitor, single point]
Cc1ccc(NC(=O)C2(NC(=O)c3ccccn3)CCCCC2)cc1Br | inconclusive: 10.4 µM [inhibitor, single point]
CCCCc1nccn1CCn1ccnc1CCCC | inconclusive: 13.1 µM [inhibitor, single point]
CC(C)CN(C(=O)c1ccco1)c1nc2ccccc2s1 | inactive
COc1ccccc1C(=O)Nc1ccnn1C1CCN(Cc2cnc(N(C)C)s2)CC1 | inactive
O=[N+]([O-])c1ccc(N2CCN(C(=S)c3cccc([N+](=O)[O-])c3)CC2)cc1 | inconclusive: 2.62 µM [inhibitor, single point]
O=C(O)c1cc([N+](=O)[O-])ccc1N1CCC(Cc2ccccc2)CC1 | inconclusive: 13.1 µM [inhibitor, partial curve, poor fit]
COCCN1C=C2C(=O)C(C)(OC(=O)C3CCCC3)C(=O)C(c3ccccc3)=C2C=C1CCCC(=O)OC (stereo unspecified) | inconclusive: 9.28 µM [inhibitor, single point]
CCOC(=O)C(C)n1cnc2sc3c(c2c1=O)CCC3 (stereo unspecified) | inconclusive: 0.294 µM [inhibitor, full curve, poor fit]

A few values from the entries so far:
In Potency, CCOc1ccc(OCC)c(NC(=O)C2CCN(S(=O)(=O)c3c(C)[nH]c(=O)[nH]c3=O)CC2)c1 is listed with inconclusive: 18.5 µM [inhibitor, single point]
In Potency, Cc1ccc(S(=O)(=O)N2CCN(Cc3cc(=O)n4ccccc4n3)CC2)cc1C is listed with inconclusive: 1.85 µM [inhibitor, single point]
In Potency, CCN1CCc2c(OCC(=O)N3CCC(C)CC3)cccc2C1=O is listed with inconclusive: 7.38 µM [inhibitor, partial curve, poor fit]
